# According to PubChem BioAssay AID493014 (National Center for Advancing Translational Sciences (NCATS), 2011):
# The list shows a part of the results. The main result of the screen is listed elsewhere. These columns were measured beside it and carry no call. The list favours compounds with an active or inconclusive main result. The note in brackets gives the kind of curve behind each potency; many fits are weak.
# Test: qHTS Assay to Find Inhibitors of Chronic Active B-Cell Receptor Signaling
# Conditions: ABC-DLBCL IkBa-CBG/CBR reporter, luminescence ratio (green luciferase fused to IkBa over red control in TMD8 lymphoma cells), 4 h
# Procedure, shortened: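 Doxycycline induced both beetle luciferases in TMD8 lymphoma cells; IKK-driven degradation limits the IkappaBalpha-fused green signal, while red luminescence normalises for cell number and nonspecific effects. Compounds tested up to 46 uM, 4 hrs.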
# [1] = measured here: CBR red luminescence, cell number
# [2] = measured here: IkBa-CBG green luminescence
Structure (SMILES),AC50 [1],AC50 [2]
O=C1CCCN1C(=O)CSc1ccc2ccccc2n1,"4.11 µM [rising, full curve, poor fit]",–
CCOC(=O)c1ccc(-n2c(N)c(C(=O)NCc3ccco3)sc2=S)cc1,"12.6 µM [rising, single point]",–
COc1ccc(Nc2nc(-c3c(C)nc4ncccn34)cs2)cc1,–,"2.82 µM [falling, full curve]"
Cc1ccccc1S(=O)(=O)NNC(=O)C(=O)NNc1ccccn1,"4.11 µM [falling, full curve]",–
O=C(c1cc(=O)c2ccccc2o1)N1CCN(c2cccc(Cl)c2)CC1,"4.47 µM [falling, full curve, poor fit]",–
O=C(NCc1ccco1)C1CCCN1C(=O)Nc1ccccc1Cl (centres undefined),"11.2 µM [rising, single point]",–
CCCCSCCCNC(=O)Nc1cccc(OC)c1,"0.291 µM [falling, full curve, poor fit]",–
CN(C)S(=O)(=O)c1cccc(NC(=O)CCCSc2ccccc2)c1,"10 µM [falling, partial curve, poor fit]",–
Cc1ccc(Nc2nc(-c3sc(NC(=O)c4cccc(Cl)c4)nc3C)cs2)cc1,"12.6 µM [falling, partial curve]",–
COc1ccc(/C(N)=N/OC(=O)CC2CCCCC2)cc1,"2.82 µM [rising, full curve]",–
COc1ccc(Oc2ccc(C(F)(F)F)cc2N)cc1,"7.94 µM [rising, partial curve]",–
COc1ccc(OC)c2sc(N(CCCN(C)C)C(=O)c3ccc(S(=O)(=O)N4CCc5ccccc5C4)cc3)nc12,"25.9 µM [falling, partial curve, poor fit]","18.4 µM [rising, partial curve, poor fit]"
COc1cc(OC)cc(C(=O)Nc2nnc(SCC(=O)NCC3CCCO3)s2)c1 (centres undefined),"3.16 µM [rising, single point]",–
COc1cccc(-c2nnc3n2N=C(c2cc(OC)ccc2OC)CS3)c1,"3.98 µM [rising, single point]",–
CSc1ccccc1NC(=O)C1CC(c2ccccc2Cl)=NO1 (centres undefined),"8.91 µM [falling, partial curve]",–
O=C1CCCCCCC1Sc1ccccc1[N+](=O)[O-] (centres undefined),"4.11 µM [falling, full curve, poor fit]",–
CCOC(=O)COc1ccc(S(=O)(=O)N2CCN(c3ccc(OC)cc3)CC2)cc1,"3.55 µM [rising, single point]",–
Cc1ccc(-c2nc(NCCN(C)C)c3ccccc3n2)cc1,"35.5 µM [falling, single point]",–

# Reprinted at random: two entries already listed.
Structure (SMILES),AC50 [1],AC50 [2]
Cc1ccc(-c2nc(NCCN(C)C)c3ccccc3n2)cc1,"35.5 µM [falling, single point]",–
COc1ccc(Oc2ccc(C(F)(F)F)cc2N)cc1,"7.94 µM [rising, partial curve]",–
